Results are given in words; binding and its absence hold for the method and conditions named. Binding seen in cells or lysates may run through a third protein. These calls come from enrichment with a bait or labelling near it, and not all partners need be listed. Where a sequence is shown, tags or fusion partners need not be part of it.

These results are taken from publication PMC10390495.

The target in the assay is T1, Flag-tagged hexokinase 2 (HK2), overexpressed from the lentiviral vector LV-HK2 (UniProt P52789).
T1 sequence: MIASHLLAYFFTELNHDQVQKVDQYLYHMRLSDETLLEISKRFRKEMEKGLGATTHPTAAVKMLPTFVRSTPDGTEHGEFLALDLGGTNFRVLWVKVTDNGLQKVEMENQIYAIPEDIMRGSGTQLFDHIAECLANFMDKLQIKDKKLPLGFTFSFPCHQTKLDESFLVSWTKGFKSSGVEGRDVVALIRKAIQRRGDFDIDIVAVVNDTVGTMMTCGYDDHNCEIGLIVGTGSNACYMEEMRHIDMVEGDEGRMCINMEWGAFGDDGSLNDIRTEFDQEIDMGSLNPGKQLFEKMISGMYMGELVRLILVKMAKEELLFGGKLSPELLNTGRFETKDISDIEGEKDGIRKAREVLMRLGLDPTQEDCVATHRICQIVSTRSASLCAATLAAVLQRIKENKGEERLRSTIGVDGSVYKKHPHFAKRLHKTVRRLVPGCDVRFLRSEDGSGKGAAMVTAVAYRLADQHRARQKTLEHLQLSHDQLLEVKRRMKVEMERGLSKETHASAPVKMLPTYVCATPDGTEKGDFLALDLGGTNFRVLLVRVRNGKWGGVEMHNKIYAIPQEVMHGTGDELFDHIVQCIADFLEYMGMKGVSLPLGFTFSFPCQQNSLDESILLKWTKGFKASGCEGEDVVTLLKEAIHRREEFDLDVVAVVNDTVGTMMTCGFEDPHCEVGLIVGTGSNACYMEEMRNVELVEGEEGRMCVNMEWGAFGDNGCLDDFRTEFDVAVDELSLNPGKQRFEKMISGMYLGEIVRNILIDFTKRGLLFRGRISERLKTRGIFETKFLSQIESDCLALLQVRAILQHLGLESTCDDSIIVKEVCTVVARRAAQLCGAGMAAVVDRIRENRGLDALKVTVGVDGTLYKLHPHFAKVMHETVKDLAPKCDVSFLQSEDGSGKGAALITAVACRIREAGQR
As to the kind of experiment: affinity purification with mass spectrometry; anti-HK2 IP products compared with anti-IgG IP products from lysates of post-IR MHCC97H LV-RFP and LV-HK2 cells; silver staining; mass spectrometry of specific bands.

B1: aminoacyl tRNA synthetase complex interacting multifunctional protein 2 (AIMP2) (protein, UniProt Q13155 1-320)
chain: MPMYQVKPYHGGGAPLRVELPTCMYRLPNVHGRSYGPAPGAGHVQEESNLSLQALESRQDDILKRLYELKAAVDGLSKMIQTPDADLDVTNIIQADEPTTLTTNALDLNSVLGKDYGALKDIVINANPASPPLSLLVLHRLLCEHFRVLSTVHTHSSVKSVPENLLKCFGEQNKKQPRQDYQLGFTLIWKNVPKTQMKFSIQTMCPIEGEGNIARFLFSLFGQKHNAVNATLIDSWVDIAIFQLKEGSSKEKAAVFRSMNSALGKSPWLAGNELTVADVVLWSVLQQIGGCSVTVPANVQRWMRSCENLAPFNTALKLLK
With B1, the binding result is listed as “binds”.
